The experiment deals with T1, argininosuccinate synthase (ASS1) (human (endogenous in HCT116)) (UniProt P00966).
T1 sequence: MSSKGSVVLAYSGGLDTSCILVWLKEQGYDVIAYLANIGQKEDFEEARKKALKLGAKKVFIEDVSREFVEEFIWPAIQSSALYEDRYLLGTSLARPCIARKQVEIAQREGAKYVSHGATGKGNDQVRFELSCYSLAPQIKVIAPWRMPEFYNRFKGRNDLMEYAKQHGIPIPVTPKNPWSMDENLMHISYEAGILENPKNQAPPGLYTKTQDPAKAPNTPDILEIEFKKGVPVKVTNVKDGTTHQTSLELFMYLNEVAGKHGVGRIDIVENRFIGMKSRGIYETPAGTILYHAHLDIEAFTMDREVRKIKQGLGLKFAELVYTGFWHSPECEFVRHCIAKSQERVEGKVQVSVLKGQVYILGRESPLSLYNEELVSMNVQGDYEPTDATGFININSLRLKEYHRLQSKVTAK
Nature of the experiment: affinity purification with mass spectrometry; anti-ASS1 immunoprecipitation (Dynabeads Protein G, overnight) of the nuclear fraction (NE-PER kit) of HCT116 cells, control and Dox-treated; LC-MS/MS of the eluate.

The chains behind the UniProt entries cited, without tags or fusion partners.
UniProt Q92922: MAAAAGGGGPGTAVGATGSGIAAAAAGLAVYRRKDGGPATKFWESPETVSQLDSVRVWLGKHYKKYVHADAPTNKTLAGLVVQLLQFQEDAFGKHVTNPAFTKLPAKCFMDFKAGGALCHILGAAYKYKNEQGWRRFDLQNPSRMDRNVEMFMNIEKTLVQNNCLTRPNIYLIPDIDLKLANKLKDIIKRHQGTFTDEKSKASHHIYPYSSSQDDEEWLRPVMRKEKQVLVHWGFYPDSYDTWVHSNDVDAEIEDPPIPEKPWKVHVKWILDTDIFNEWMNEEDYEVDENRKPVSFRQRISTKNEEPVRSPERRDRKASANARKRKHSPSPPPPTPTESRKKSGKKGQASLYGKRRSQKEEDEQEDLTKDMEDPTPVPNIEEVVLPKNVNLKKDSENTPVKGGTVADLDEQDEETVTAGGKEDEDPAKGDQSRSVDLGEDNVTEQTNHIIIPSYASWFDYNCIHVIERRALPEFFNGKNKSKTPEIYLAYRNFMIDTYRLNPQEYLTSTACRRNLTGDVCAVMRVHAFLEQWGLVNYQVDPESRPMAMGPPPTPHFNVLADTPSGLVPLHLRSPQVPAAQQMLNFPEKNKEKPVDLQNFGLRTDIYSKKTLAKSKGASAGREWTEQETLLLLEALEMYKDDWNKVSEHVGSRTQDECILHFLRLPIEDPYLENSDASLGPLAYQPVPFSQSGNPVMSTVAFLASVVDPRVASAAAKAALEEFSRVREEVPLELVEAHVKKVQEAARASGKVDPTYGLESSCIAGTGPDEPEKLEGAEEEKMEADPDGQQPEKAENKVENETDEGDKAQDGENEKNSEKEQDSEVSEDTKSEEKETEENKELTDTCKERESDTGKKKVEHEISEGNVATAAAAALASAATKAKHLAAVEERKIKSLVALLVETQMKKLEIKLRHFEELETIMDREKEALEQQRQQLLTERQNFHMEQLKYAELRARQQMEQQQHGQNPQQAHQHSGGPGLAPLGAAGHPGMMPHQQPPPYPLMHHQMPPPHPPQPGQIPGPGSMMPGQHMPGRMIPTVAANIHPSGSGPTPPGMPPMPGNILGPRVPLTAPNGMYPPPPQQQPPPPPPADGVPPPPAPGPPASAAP

Results are given in words; binding and its absence hold for the method and conditions named. Binding seen in cells or lysates may run through a third protein. A yes stands for co-enrichment or nearness to the bait. Other partners may have been found.

With “SWI/SNF-related, matrix-associated, actin-dependent regulator of chromatin subfamily C member 1 (SMARCC1) (from UniProt Q92922 1-1105)”, the binding result is given as “binds”.

For the origin of these results see paper PMC11272581.
